Laboratory results published in publication PMC11423194.
These are yes or no findings as the source states them, for the method shown. Binding seen in cells or lysates may run through a third protein. Some entries that bind do so weakly or less than the wild type.

How the values were obtained:
[1] = target: RCSA NanoBiT fusion (assay of Figure S3D) (Salmonella typhimurium) (UniProt P54698); assay: split reporter; SmBiT and LgBiT fused to bait and prey; expressed in the strains; bioluminescence after addition of the substrate (Figure S3D)
[2] = target: RCSA with a Myc-tag (RCSA-Myc) (Salmonella typhimurium) (UniProt P54698); assay: co-IP; lysates (lysozyme, 1% Triton X-100, proteinase inhibitor) of strains carrying plasmids for RCSA-Myc, HTRA-His or both; overnight at 4 °C with protein A/G agarose beads and His-tag or Myc-tag antibodies; eluted with 0.1 M glycine pH 3.0; western blot

| Substance | binding [1] | binding [2] |
| --- | --- | --- |
| HTRA NanoBiT fusion (assay of Figure S3D) (from UniProt P26982 27-475) (enzyme) | binds |  |
| HTRA with a His-tag (HTRA-His) (from UniProt P26982 27-475) (enzyme) |  | binds |
